{
  "source": "patent US8158661B2",
  "about": "“GSK-3 inhibitors” (Noscira, S.A., priority 2004, dated 2012)",
  "test": "Binding to GSH (incubation, HPLC-UV/MS)",
  "format": "in vitro ADME",
  "settings": "compound and glutathione 1 mM each, 30 minutes at room temperature",
  "data": [
    {"smiles": "O=c1sn(Cc2ccccc2)c(=O)n1Cc1ccccc1", "note": "[2,4-dibenzyl-1,2,4-thiadiazolidine-3,5-dione, reference compound]", "values": [
      {"measurement": "% unbinding compound, glutathione", "result": 17.1, "unit": "%"}
    ]},
    {"smiles": "O=c1sn(CCc2ccccc2)c(=O)n1Cc1ccccc1", "note": "[Compound 1, 2-Phenethyl-4-benzyl-(1,2,4)thiadiazolidine-3,5-dione]", "values": [
      {"measurement": "% unbinding compound, glutathione", "result": 34.7, "unit": "%"}
    ]},
    {"smiles": "O=c1sn(-c2cccc3ccccc23)c(=O)n1Cc1ccccc1", "note": "[Compound 2, 4-Benzyl-2-naphthalen-1-yl-[1,2,4]thiadiazolidine-3,5-dione]", "values": [
      {"measurement": "% unbinding compound, glutathione", "result": 95.0, "unit": "%"}
    ]},
    {"smiles": "O=c1sn(C23CC4CC(CC(C4)C2)C3)c(=O)n1Cc1ccccc1", "note": "[Compound 3, 2-(1-adamantyl)-4-benzyl-[1,2,4]thiadiazolidine-3,5-dione]", "values": [
      {"measurement": "% unbinding compound, glutathione", "result": 15.0, "unit": "%"}
    ]},
    {"smiles": "Cc1ccc(Cn2sc(=O)n(Cc3ccccc3)c2=O)cc1", "note": "[Compound 4, 4-Benzyl-2-(4-methyl-benzyl)-[1,2,4]thiadiazolidine-3,5-dione]", "values": [
      {"measurement": "% unbinding compound, glutathione", "result": 32.3, "unit": "%"}
    ]},
    {"smiles": "O=c1sn(C(c2ccccc2)c2ccccc2)c(=O)n1Cc1ccccc1", "note": "[Compound 6, 4-Benzyl-2-diphenylmethyl-1,2,4-thiadiazolidine-3,5-dione]", "values": [
      {"measurement": "% unbinding compound, glutathione", "result": 52.0, "unit": "%"}
    ]},
    {"smiles": "COc1ccc(Cn2sc(=O)n(Cc3ccccc3)c2=O)cc1", "note": "[Compound 7, 4-Benzyl-2-(4-methoxybenzyl)-[1,2,4]thiadiazolidine-3,5-dione]", "values": [
      {"measurement": "% unbinding compound, glutathione", "result": 31.0, "unit": "%"}
    ]},
    {"smiles": "Cc1cccc(C(C)(C)C)c1-n1sc(=O)n(Cc2ccccc2)c1=O", "note": "[Compound 8, 4-Benzyl-2-(2-tert-butyl-6-methyl-phenyl)-(1,2,4)thiadiazolidine-3,5-dione]", "values": [
      {"measurement": "% unbinding compound, glutathione", "result": 59.4, "unit": "%"}
    ]},
    {"smiles": "O=c1sn(-c2ccccc2Cc2ccccc2)c(=O)n1Cc1ccccc1", "note": "[Compound 9, 4-Benzyl-2-(2-benzyl-phenyl)-[1,2,4]thiadiazolidine-3,5-dione]", "values": [
      {"measurement": "% unbinding compound, glutathione", "result": 71.7, "unit": "%"}
    ]},
    {"smiles": "O=c1sn(-c2ccc(Oc3ccccc3)cc2)c(=O)n1Cc1ccccc1", "note": "[Compound 10, 4-Benzyl-2-(4-phenoxyphenyl)-[1,2,4]thiadiazolidine-3,5-dione]", "values": [
      {"measurement": "% unbinding compound, glutathione", "result": 100.0, "unit": "%"}
    ]}
  ]
}
